Over roughly 33,000 sequences, “E-score (-0.5 to 0.5)” has its median near -0.0014; the highest 2% begin near 0.25. This is one part of the list.

This assay concerns the target T1, Cad1 (UniProt P24813).
T1 sequence: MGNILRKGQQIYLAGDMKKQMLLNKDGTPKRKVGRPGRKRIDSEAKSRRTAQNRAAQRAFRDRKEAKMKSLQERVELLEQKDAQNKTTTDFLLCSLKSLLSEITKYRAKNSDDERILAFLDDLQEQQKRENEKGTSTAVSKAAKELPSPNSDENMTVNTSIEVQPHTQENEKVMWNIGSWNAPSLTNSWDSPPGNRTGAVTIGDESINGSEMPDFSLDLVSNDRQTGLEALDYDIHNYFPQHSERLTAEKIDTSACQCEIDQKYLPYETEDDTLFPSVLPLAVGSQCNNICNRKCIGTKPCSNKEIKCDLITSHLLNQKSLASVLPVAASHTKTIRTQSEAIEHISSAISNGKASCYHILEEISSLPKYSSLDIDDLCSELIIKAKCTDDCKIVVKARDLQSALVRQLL
The assay can be described thus: PBM E-score (8-mer binding enrichment) (E-score (-0.5 to 0.5)); higher = stronger / more preferred TF binding. Particulars: protein concentration: 100 nM; construct: GST-full length. An outline of the steps:
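Bound GST-tagged yeast transcription factors, applied at about 100-200 nM to double-stranded universal all-10-mer Agilent arrays, were detected with fluorescent anti-GST. Scans were normalised with masliner. A modified Wilcoxon-Mann-Whitney statistic, the E-score, was assigned to each ungapped eight-base word pooled with its reverse complement by the Universal PBM Analysis Suite.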
Consider CGGACTCA, for which the “PBM E-score” value was -0.02.

With TAACAAGA, the “PBM E-score” value was -0.0477.

Consider AATAACCC, for which the “PBM E-score” value worked out at 0.128.

For AATGTGGT, the “PBM E-score” value came to 0.0506.

For AGCGTGAG, the “PBM E-score” value was -0.0272.

Take ATGCAGTG: the “PBM E-score” value was 0.143.

In the case of AATTCGCT, the “PBM E-score” value came to 0.236.

On to ACGACCTA, for which the “PBM E-score” value is -0.0934.

Turning to ACCTTCCA, the “PBM E-score” value was -0.0872.

Take AGGGCTTA: the “PBM E-score” value is -0.0793.

As to AGGGGGCG, the “PBM E-score” value was -0.326.

Consider CAACTGTG, for which the “PBM E-score” value was -0.031.

Regarding AGTCTACA, the “PBM E-score” value is -0.246.

Consider CATGCCGA, for which the “PBM E-score” value worked out at 0.248.

On to ATACTCAA, for which the “PBM E-score” value is -0.0344.

For CATACGAC, the “PBM E-score” value was -0.0038.

In the case of CTCCAACA, the “PBM E-score” value is -0.0567.

For the sequence CATTAGGC, the “PBM E-score” value was -0.191.

For the sequence AGTTCAAC, the “PBM E-score” value is 0.11.

In the case of AAGTTAAG, the “PBM E-score” value is -0.152.

Take ATTAGTGG: the “PBM E-score” value amounted to 0.163.

For ACCGTTTA, the “PBM E-score” value was -0.0313.

As for CTCTATAC, the “PBM E-score” value worked out at 0.0205.

As to AGCGCTAA, the “PBM E-score” value was found to be 0.212.

As to AGACCTAA, the “PBM E-score” value was -0.0611.

In the case of CAATCCCC, the “PBM E-score” value was -0.19.

Regarding TCTAGAAA, the “PBM E-score” value was -0.148.

For the sequence TAATACGA, the “PBM E-score” value was determined as 0.196.

As for ATGTATAA, the “PBM E-score” value amounted to 0.137.

As for ATGGAAGA, the “PBM E-score” value is -0.289.

Regarding CAGGTGGG, the “PBM E-score” value is -0.0969.

Take CAAGATAC: the “PBM E-score” value was -0.0667.

For ATAAGCAT, the “PBM E-score” value was determined as 0.0827.

Consider GGAGATTA, for which the “PBM E-score” value is -0.0629.

For GAAAACAA, the “PBM E-score” value is 0.0685.

For the sequence TGGGCCAA, the “PBM E-score” value was -0.0473.

On to AAGCGATG, for which the “PBM E-score” value is -0.0678.

Consider ACGGACGG, for which the “PBM E-score” value was -0.0788.

In the case of CGATAGGA, the “PBM E-score” value is -0.124.

Consider CACAGCTA, for which the “PBM E-score” value stood at 0.00972.

For ATGTGGGC, the “PBM E-score” value is -0.00867.

With CATTACGC, the “PBM E-score” value was 0.0335.

As to CCCCAGCC, the “PBM E-score” value was -0.104.

On to CGTCGCCC, for which the “PBM E-score” value was -0.279.

Regarding AATCCCAC, the “PBM E-score” value is -0.101.

Turning to GCTCCAGA, the “PBM E-score” value was -0.0292.

For CCTTCTTC, the “PBM E-score” value is -0.242.

As for AATCCTCC, the “PBM E-score” value was found to be 0.0477.

ACGGCTGA: the “PBM E-score” value stood at 0.0503.

AACTGTCG: the “PBM E-score” value was 0.0559.

Turning to AGCGACAC, the “PBM E-score” value is 0.0263.

For AGCCGACA, the “PBM E-score” value is -0.0901.

CTATCTCC: the “PBM E-score” value is -0.217.

On to AATCTTCG, for which the “PBM E-score” value is 0.118.

CGGTGATC: the “PBM E-score” value is -0.231.

Take TGAACGCA: the “PBM E-score” value is 0.202.

Regarding CTTCGGAA, the “PBM E-score” value worked out at 0.145.

Turning to ATACTTCG, the “PBM E-score” value was -0.0617.

For the sequence GACCCCCC, the “PBM E-score” value was -0.458.

In the case of AGCATTTC, the “PBM E-score” value was determined as 0.0511.

For the sequence CACTTAAA, the “PBM E-score” value worked out at 0.0186.

As to AGGCTCAC, the “PBM E-score” value is -0.085.

As to AGAATAAT, the “PBM E-score” value was found to be 0.147.

Turning to TCTTGGAA, the “PBM E-score” value came to 0.0914.

For AGGCCACC, the “PBM E-score” value is -0.197.

Take TAAAAGCA: the “PBM E-score” value came to 0.0457.

For the sequence GGACGAAA, the “PBM E-score” value was determined as 0.0387.

With CCAACAAC, the “PBM E-score” value is 0.0698.

With AAGCGCCG, the “PBM E-score” value came out at 0.0659.

With GATCTTGA, the “PBM E-score” value came out at 0.0458.

As for ATGTTTGG, the “PBM E-score” value was -0.0712.

Turning to CCTCTACA, the “PBM E-score” value is -0.131.

For AAAGTTGA, the “PBM E-score” value was -0.0124.

As for GCCATGCC, the “PBM E-score” value was -0.0719.

Take GCATTGGA: the “PBM E-score” value is -0.0362.

Consider GAAGGGTA, for which the “PBM E-score” value is -0.0339.

In the case of ATACTAAT, the “PBM E-score” value came to 0.105.

In the case of CAGATATG, the “PBM E-score” value came to 0.0771.

In the case of ATTCTAGC, the “PBM E-score” value was -0.156.

Regarding TCAAAGAA, the “PBM E-score” value was -0.104.

For CATAATAC, the “PBM E-score” value turned out to be 0.0107.

As to GTGGGTTA, the “PBM E-score” value is -0.0649.

With GCTCCTGA, the “PBM E-score” value is -0.119.

Consider CACAAGCG, for which the “PBM E-score” value is -0.145.

In the case of AATGTTAG, the “PBM E-score” value stood at 0.0286.

As to ACTGGAAT, the “PBM E-score” value was determined as 0.0248.

Source of the values: the supplement of paper PMC3334620.
